Data from EP4397306A1, “C5AR1 INHIBITORS FOR USE IN THE TREATMENT OF OCULAR MUCOUS MEMBRANE PEMPHIGOID AND/OR ORAL MUCOUS MEMBRANE PEMPHIGOID” (Dompe' Farmaceutici S.P.A., priority 2023, dated 2024).
At least one compound was matched to its structure with a doubt left.

Legend:
Format in all cases: in vivo, C57Bl/6 (B6) mice
experimental MMP [1] = assay: Palpebral conjunctival split formation (conjunctiva score, H&E histopathology) in antibody transfer-induced experimental MMP mouse model; conditions: DF3966A 0.05% eyedrops twice daily
experimental MMP [2] = assay: Semi-quantification of subepithelial inflammatory infiltrate in H&E stained palpebral conjunctiva biopsies, experimental MMP mouse model; conditions: DF3966A 0.05% eyedrops twice daily; for subepithelial inflammatory cell infiltrate by semi-quantification of H&E stained palpebral conjunctival biopsies: day 12, MP i.p., compared to vehicle (figure 1B)
experimental MMP [3] = assay: Severity of oral lesions by endoscopy (score 0-4) in experimental MMP mouse model; conditions: eyedrops application

SMILES | conjunctival split formation (experimental MMP [1]; day 12, compared to vehicle (p=0.0016, figure 1A)) | palpebral conjunctival split formation (experimental MMP [1]; day 28, compared to vehicle (p=0.0414, figure 3A)) | subepithelial inflammatory cell infiltrate by semi-quantification of H&E stained palpebral conjunctival biopsies (experimental MMP [2]) | subepithelial inflammatory infiltrate by semi-quantification of H&E stained biopsies of the palpebral conjunctiva (experimental MMP [2]; day 28, compared to vehicle (p=0.0188, figure 3B)) | severity of oral involvement (experimental MMP [3]; day 12, compared to vehicle (p=0.0479)) | severity of oral involvement (experimental MMP [3]; day 28, compared to vehicle (p=0.0372))
C[C@H](c1ccc(Nc2nc(C(F)(F)F)cs2)cc1)c1nn[nH]n1 [DF3966A, 5-[(1R)-1-(4-{[4-(trifluoromethyl)-1,3-thiazol-2-yl]amino}phenyl)ethyl]tetrazol-2-ide] | significant reduction | significant reduction | No statistical significant reduction | decreased subepithelial inflammatory infiltrate | decreased severity of oral involvement | decreased severity of oral involvement
C[C@H]1C[C@@H]2[C@H]([C@@H](O)C[C@@]3(C)[C@H]2CC[C@]3(O)C(=O)CO)[C@@]2(C)C=CC(=O)C=C12 [MP, Methylprednisolone, reference compound] | – | – | statistically significant difference between the vehicle group and MP group | – | – | –
